The supplement of paper PMC12823440, “Inhibitors supercharge kinase turnover through native proteolytic circuits” (Nature, 2025)
Counter-ions that a name gives are not always drawn. This is one part of the list. Hit calls seldom repeat between salt and free forms of one compound.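 Kinases, fused to nanoluciferase, were expressed in K562 cells; luminescence was measured every 4 h from 2 to 18 h as percent of control (DMSO = 100%, positive control = 0%). A time point is decreased if signal falls significantly (2 sigma). Hits were called by the authors by a rule that is not shown; the count of time points alone does not decide it.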

The chains behind the UniProt entries cited, without tags or fusion partners. Where a name states a change or a piece, a line headed by the entry shows the natural chain unless it says otherwise.
UniProt P07949, whole entry, looked up: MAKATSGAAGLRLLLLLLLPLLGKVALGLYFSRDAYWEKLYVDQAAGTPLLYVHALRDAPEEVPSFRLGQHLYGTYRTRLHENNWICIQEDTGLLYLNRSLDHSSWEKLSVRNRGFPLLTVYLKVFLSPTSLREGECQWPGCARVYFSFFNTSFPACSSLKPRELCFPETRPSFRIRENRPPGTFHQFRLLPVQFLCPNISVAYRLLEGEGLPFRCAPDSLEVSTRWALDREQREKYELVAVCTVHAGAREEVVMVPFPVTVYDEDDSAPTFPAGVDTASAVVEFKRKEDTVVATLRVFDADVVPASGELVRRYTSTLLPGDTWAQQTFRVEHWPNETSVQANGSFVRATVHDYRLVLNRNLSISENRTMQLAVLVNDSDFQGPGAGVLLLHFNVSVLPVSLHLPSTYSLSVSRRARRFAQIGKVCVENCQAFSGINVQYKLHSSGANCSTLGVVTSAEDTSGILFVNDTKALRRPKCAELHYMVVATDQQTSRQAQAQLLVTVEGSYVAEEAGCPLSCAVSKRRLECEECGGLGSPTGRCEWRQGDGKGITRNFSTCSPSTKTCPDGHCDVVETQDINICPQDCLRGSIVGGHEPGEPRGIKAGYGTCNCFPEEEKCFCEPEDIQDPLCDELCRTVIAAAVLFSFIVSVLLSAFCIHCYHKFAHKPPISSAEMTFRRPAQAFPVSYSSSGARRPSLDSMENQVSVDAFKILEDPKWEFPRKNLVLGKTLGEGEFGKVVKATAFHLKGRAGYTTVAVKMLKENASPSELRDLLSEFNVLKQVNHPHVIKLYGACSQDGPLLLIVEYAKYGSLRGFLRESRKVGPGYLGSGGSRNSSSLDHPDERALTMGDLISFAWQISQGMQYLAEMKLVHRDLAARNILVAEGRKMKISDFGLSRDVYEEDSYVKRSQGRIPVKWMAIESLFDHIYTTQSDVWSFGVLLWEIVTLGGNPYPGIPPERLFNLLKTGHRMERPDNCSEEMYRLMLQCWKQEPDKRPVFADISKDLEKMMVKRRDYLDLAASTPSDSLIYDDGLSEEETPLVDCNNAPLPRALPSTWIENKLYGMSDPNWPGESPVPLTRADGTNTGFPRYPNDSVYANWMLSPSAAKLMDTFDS
UniProt P07949, whole entry M918T, looked up: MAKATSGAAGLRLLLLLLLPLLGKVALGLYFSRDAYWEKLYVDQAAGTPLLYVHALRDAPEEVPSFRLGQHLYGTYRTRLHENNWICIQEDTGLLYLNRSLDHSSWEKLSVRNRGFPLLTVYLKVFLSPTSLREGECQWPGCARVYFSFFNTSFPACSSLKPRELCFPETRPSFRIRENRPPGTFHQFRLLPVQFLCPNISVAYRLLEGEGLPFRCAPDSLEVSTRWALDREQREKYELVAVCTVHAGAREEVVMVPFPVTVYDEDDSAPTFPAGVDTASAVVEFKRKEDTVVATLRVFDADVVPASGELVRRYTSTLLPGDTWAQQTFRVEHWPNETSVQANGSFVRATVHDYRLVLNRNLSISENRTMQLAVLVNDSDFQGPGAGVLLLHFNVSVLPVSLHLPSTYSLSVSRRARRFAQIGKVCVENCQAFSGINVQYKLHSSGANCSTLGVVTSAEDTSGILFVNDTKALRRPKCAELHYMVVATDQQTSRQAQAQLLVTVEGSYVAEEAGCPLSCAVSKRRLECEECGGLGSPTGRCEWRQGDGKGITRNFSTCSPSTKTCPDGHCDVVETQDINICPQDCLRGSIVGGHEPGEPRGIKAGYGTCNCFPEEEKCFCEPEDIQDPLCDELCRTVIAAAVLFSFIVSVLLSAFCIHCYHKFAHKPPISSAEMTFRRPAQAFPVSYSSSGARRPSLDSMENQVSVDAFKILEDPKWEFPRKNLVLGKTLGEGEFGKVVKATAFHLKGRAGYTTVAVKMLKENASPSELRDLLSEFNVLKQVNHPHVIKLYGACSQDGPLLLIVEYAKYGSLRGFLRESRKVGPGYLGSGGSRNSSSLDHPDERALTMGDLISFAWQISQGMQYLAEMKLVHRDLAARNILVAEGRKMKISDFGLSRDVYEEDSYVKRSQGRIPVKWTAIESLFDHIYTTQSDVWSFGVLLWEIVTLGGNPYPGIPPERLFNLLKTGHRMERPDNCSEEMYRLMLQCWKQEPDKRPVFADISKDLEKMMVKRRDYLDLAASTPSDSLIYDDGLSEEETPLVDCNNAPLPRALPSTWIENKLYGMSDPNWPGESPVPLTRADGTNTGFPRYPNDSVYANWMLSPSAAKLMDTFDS
UniProt Q9BRS2: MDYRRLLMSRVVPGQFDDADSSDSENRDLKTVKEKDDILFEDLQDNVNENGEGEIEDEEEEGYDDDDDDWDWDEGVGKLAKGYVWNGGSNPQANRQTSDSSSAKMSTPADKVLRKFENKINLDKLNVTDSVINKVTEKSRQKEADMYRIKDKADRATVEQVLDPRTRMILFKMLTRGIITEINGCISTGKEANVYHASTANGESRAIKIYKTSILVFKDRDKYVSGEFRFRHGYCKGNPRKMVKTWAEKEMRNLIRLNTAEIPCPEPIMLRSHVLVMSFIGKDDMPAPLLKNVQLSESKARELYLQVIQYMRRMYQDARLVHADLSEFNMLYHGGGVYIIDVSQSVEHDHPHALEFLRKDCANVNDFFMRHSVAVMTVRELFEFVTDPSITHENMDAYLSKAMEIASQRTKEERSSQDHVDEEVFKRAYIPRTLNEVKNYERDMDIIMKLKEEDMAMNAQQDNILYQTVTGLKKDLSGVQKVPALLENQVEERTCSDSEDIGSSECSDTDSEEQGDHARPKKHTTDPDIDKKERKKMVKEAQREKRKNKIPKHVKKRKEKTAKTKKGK
UniProt Q15418, whole entry: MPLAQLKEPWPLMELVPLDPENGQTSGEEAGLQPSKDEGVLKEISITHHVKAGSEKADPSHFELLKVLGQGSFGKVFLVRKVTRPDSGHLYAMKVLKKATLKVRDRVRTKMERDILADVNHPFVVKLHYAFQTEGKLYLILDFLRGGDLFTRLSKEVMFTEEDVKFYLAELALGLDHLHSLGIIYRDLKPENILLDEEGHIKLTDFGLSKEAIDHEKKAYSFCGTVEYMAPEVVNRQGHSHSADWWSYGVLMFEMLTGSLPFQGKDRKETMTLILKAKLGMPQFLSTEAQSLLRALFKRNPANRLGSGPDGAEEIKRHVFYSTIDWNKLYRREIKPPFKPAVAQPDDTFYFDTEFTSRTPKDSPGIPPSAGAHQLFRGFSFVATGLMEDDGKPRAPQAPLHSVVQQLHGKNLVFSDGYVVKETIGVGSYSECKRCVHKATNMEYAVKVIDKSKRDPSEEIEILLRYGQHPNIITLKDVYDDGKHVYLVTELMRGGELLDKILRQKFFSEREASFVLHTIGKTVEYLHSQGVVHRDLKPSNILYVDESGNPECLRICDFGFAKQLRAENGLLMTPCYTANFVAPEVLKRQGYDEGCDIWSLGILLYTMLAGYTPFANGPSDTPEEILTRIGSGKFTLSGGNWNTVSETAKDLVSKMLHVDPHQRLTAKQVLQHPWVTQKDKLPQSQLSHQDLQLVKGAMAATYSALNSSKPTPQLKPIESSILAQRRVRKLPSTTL
UniProt Q9NYA1, whole entry: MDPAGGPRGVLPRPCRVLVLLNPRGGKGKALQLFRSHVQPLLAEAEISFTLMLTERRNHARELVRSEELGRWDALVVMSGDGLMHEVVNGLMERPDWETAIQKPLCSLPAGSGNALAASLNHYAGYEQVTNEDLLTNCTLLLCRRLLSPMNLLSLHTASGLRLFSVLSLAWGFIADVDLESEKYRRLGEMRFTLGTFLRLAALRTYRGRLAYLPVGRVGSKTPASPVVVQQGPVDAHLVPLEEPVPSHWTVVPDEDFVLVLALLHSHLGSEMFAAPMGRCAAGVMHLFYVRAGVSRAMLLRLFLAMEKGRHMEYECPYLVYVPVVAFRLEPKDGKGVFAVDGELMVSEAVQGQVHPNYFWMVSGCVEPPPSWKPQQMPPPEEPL
UniProt Q9Y6E0: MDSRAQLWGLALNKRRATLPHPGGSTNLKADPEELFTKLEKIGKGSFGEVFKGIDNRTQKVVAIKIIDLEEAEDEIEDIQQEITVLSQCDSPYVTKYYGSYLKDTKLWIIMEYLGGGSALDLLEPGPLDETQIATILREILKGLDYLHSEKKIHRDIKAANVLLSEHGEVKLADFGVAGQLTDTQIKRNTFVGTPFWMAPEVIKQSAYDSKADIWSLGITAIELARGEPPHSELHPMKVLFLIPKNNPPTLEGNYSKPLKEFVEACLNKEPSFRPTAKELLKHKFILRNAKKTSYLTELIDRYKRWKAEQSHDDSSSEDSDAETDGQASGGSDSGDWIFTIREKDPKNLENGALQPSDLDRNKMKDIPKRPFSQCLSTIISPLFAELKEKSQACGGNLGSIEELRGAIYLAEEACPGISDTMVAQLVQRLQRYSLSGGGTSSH
UniProt Q15208: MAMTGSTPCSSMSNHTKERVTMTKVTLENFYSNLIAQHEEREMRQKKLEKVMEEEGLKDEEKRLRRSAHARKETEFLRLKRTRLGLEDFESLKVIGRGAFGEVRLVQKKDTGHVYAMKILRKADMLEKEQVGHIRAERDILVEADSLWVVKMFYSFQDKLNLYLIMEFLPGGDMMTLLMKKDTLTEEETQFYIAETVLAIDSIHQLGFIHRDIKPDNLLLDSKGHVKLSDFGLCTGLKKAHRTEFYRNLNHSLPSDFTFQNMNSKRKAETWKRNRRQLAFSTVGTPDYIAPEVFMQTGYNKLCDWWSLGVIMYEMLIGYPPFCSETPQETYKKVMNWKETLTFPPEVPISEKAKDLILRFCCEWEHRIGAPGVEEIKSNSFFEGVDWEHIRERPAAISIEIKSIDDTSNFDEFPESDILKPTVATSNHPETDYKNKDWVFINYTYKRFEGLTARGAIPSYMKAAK
UniProt P42680: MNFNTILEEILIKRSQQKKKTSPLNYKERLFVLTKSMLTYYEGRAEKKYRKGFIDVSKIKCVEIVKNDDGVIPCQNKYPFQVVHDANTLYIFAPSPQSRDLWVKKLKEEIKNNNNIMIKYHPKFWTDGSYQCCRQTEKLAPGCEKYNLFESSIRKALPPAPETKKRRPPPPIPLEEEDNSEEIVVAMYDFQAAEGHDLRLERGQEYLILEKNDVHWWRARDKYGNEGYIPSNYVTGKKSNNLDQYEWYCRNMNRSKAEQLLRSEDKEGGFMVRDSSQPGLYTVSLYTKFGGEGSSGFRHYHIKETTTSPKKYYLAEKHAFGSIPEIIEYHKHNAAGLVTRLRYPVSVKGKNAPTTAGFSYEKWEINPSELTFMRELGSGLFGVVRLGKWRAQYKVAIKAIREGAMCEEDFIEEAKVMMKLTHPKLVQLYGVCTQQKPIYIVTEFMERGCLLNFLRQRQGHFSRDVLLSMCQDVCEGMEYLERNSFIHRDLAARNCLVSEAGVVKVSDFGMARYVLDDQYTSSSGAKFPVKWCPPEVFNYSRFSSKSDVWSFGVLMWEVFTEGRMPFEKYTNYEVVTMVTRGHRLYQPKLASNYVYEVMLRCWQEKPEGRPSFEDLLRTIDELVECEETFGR
UniProt P07947, whole entry, looked up: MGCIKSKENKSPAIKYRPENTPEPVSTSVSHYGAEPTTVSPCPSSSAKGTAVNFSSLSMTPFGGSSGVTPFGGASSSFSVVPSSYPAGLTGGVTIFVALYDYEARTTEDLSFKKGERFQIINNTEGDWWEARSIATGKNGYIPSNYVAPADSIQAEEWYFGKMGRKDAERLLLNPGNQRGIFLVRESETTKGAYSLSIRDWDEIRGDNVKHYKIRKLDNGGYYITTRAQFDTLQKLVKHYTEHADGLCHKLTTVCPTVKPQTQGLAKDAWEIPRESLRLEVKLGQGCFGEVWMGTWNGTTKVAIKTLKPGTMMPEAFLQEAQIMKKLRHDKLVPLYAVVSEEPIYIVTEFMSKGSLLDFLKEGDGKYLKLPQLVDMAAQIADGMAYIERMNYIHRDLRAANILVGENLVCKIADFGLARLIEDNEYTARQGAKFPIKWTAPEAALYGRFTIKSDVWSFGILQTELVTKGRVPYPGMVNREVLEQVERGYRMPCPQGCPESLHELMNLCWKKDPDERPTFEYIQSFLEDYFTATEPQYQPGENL
UniProt P11802: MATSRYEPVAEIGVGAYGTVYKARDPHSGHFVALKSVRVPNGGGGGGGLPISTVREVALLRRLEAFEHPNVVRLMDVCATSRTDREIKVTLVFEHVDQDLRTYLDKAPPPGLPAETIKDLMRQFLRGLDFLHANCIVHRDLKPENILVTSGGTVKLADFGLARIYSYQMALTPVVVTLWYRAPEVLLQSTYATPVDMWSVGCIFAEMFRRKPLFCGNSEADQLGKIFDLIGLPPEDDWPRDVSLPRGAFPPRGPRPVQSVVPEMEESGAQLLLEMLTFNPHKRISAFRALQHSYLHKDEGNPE

Assays:
Conditions in all cases: K562, 2-18 h
RET = RET (UniProt P07949); assay: kinase-Nluc reporter destabilization hit call (1 = scored as downregulated) (binary); higher = compound decreases kinase abundance
[1] = molecular target: RET_M918T (clone: RET_mut) (UniProt P07949); assay: as above
RIOK1 = RIOK1 (UniProt Q9BRS2); assay: as above
RIPK1 = RIPK1 (UniProt Q13546); assay: as above
RIPK2 = RIPK2 (UniProt O43353); assay: as above
ROR2 = ROR2 (UniProt Q01974); assay: as above
RPS6KA1 = RPS6KA1 (UniProt Q15418); assay: as above
SPHK1 = SPHK1 (UniProt Q9NYA1); assay: as above
SRC = SRC (UniProt P12931); assay: as above
STK24 = STK24 (UniProt Q9Y6E0); assay: as above
STK38 = STK38 (UniProt Q15208); assay: as above
SYK = SYK (UniProt P43405); assay: as above
TEC = TEC (UniProt P42680); assay: as above
TYK2 = TYK2 (UniProt P29597); assay: as above
ULK3 = ULK3 (UniProt Q6PHR2); assay: as above
YES1 = YES1 (UniProt P07947); assay: as above
ZAK = ZAK (UniProt Q9NYL2); assay: as above
ZAP70 = ZAP70 (UniProt P43403); assay: as above
CDK4 = CDK4 (UniProt P11802); assay: number of time points (of 4; 2 h point missing) at which kinase-Nluc abundance scored as decreased, DMSO-normalised (count); higher = more persistent destabilization
CDK7 = CDK7 (UniProt P50613); assay: as above

SMILES | kinase-Nluc reporter destabilization hit call (RET; 10 µM) | kinase-Nluc reporter destabilization hit call ([1]; 10 µM) | kinase-Nluc reporter destabilization hit call (RIOK1; 10 µM) | kinase-Nluc reporter destabilization hit call (RIPK1; 10 µM) | kinase-Nluc reporter destabilization hit call (RIPK2; 10 µM) | kinase-Nluc reporter destabilization hit call (ROR2; 10 µM) | kinase-Nluc reporter destabilization hit call (RPS6KA1; 10 µM) | kinase-Nluc reporter destabilization hit call (SPHK1; 10 µM) | kinase-Nluc reporter destabilization hit call (SRC; 10 µM) | kinase-Nluc reporter destabilization hit call (STK24; 10 µM) | kinase-Nluc reporter destabilization hit call (STK38; 10 µM) | kinase-Nluc reporter destabilization hit call (SYK; 10 µM) | kinase-Nluc reporter destabilization hit call (TEC; 10 µM) | kinase-Nluc reporter destabilization hit call (TYK2; 10 µM) | kinase-Nluc reporter destabilization hit call (ULK3; 10 µM) | kinase-Nluc reporter destabilization hit call (YES1; 10 µM) | kinase-Nluc reporter destabilization hit call (ZAK; 10 µM) | kinase-Nluc reporter destabilization hit call (ZAP70; 10 µM) | number of time points (CDK4; 10 µM) | number of time points (CDK7; 10 µM) | kinase-Nluc reporter destabilization hit call (RET; 2.5 µM) | kinase-Nluc reporter destabilization hit call ([1]; 2.5 µM) | kinase-Nluc reporter destabilization hit call (RIOK1; 2.5 µM) | kinase-Nluc reporter destabilization hit call (RIPK1; 2.5 µM) | kinase-Nluc reporter destabilization hit call (RIPK2; 2.5 µM) | kinase-Nluc reporter destabilization hit call (ROR2; 2.5 µM) | kinase-Nluc reporter destabilization hit call (RPS6KA1; 2.5 µM) | kinase-Nluc reporter destabilization hit call (SPHK1; 2.5 µM) | kinase-Nluc reporter destabilization hit call (SRC; 2.5 µM) | kinase-Nluc reporter destabilization hit call (STK24; 2.5 µM) | kinase-Nluc reporter destabilization hit call (STK38; 2.5 µM) | kinase-Nluc reporter destabilization hit call (SYK; 2.5 µM) | kinase-Nluc reporter destabilization hit call (TEC; 2.5 µM) | kinase-Nluc reporter destabilization hit call (TYK2; 2.5 µM) | kinase-Nluc reporter destabilization hit call (ULK3; 2.5 µM) | kinase-Nluc reporter destabilization hit call (YES1; 2.5 µM) | kinase-Nluc reporter destabilization hit call (ZAK; 2.5 µM) | kinase-Nluc reporter destabilization hit call (ZAP70; 2.5 µM) | number of time points (CDK4; 2.5 µM) | number of time points (CDK7; 2.5 µM)
C#Cc1cccc(Nc2ncnc3cc(OCCOC)c(OCCO)cc23)c1 [Desmethyl Erlotinib (hydrochloride)] | inactive: 0 | inactive: 0 | inactive: 0 | inactive: 0 | inactive: 0 | inactive: 0 | inactive: 0 | inactive: 0 | inactive: 0 | inactive: 0 | inactive: 0 | inactive: 0 | inactive: 0 | active: 1 | inactive: 0 | inactive: 0 | inactive: 0 | inactive: 0 | 0 | 0 |  |  |  |  |  |  |  |  |  |  |  |  |  |  |  |  |  |  |  | 
O=C(c1ccc(F)c(F)c1Nc1ccc(I)cc1F)N1CC(O)([C@@H]2CCCCN2)C1 [Cobimetinib (hemifumarate)] | inactive: 0 | inactive: 0 | inactive: 0 | inactive: 0 | inactive: 0 | inactive: 0 | inactive: 0 | inactive: 0 | inactive: 0 | inactive: 0 | inactive: 0 | inactive: 0 | inactive: 0 | inactive: 0 | inactive: 0 | inactive: 0 | inactive: 0 | inactive: 0 | 0 | 2 |  |  |  |  |  |  |  |  |  |  |  |  |  |  |  |  |  |  |  | 
C/C=C1\C(=O)C[C@H]2[C@@H]3CCC4=CC(=O)CC[C@]4(C)[C@H]3CC[C@]12C [(Z)-Guggulsterone] | inactive: 0 | inactive: 0 | inactive: 0 | inactive: 0 | inactive: 0 | inactive: 0 | inactive: 0 | inactive: 0 | inactive: 0 | inactive: 0 | inactive: 0 | inactive: 0 | inactive: 0 | inactive: 0 | inactive: 0 | inactive: 0 | inactive: 0 | inactive: 0 | 0 | 0 |  |  |  |  |  |  |  |  |  |  |  |  |  |  |  |  |  |  |  | 
O=C(Nc1ccncc1)Nc1ccc(-c2nc(N3CCOCC3)nc(N3C4CCC3COC4)n2)cc1 | inactive: 0 | inactive: 0 | inactive: 0 | inactive: 0 | inactive: 0 | inactive: 0 | inactive: 0 | inactive: 0 | inactive: 0 | inactive: 0 | inactive: 0 | inactive: 0 | inactive: 0 | inactive: 0 | inactive: 0 | inactive: 0 | inactive: 0 | inactive: 0 | 0 | 3 |  |  |  |  |  |  |  |  |  |  |  |  |  |  |  |  |  |  |  | 
CCCCCCCCc1ccc(CCC(N)(CO)CO)cc1 [Fingolimod (hydrochloride)] |  |  |  |  |  |  |  |  |  |  |  |  |  |  |  |  |  |  |  |  | inactive: 0 | inactive: 0 | inactive: 0 | inactive: 0 | inactive: 0 | inactive: 0 | inactive: 0 | inactive: 0 | inactive: 0 | inactive: 0 | inactive: 0 | inactive: 0 | inactive: 0 | inactive: 0 | inactive: 0 | inactive: 0 | inactive: 0 | inactive: 0 | 0 | 0
CC(=O)Nc1cccc(-n2c(=O)n(C3CC3)c(=O)c3c(Nc4ccc(I)cc4F)n(C)c(=O)c(C)c32)c1 [Trametinib (DMSO solvate)] | inactive: 0 | inactive: 0 | inactive: 0 | inactive: 0 | inactive: 0 | inactive: 0 | inactive: 0 | inactive: 0 | inactive: 0 | inactive: 0 | inactive: 0 | inactive: 0 | inactive: 0 | inactive: 0 | inactive: 0 | inactive: 0 | inactive: 0 | inactive: 0 | 0 | 0 |  |  |  |  |  |  |  |  |  |  |  |  |  |  |  |  |  |  |  | 
CCS(=O)(=O)N1CC(CC#N)(n2cc(-c3ncnc4[nH]ccc34)cn2)C1 [Baricitinib (phosphate)] | inactive: 0 | inactive: 0 | inactive: 0 | inactive: 0 | inactive: 0 | inactive: 0 | inactive: 0 | inactive: 0 | inactive: 0 | inactive: 0 | inactive: 0 | inactive: 0 | inactive: 0 | inactive: 0 | inactive: 0 | inactive: 0 | inactive: 0 | inactive: 0 | 0 | 0 |  |  |  |  |  |  |  |  |  |  |  |  |  |  |  |  |  |  |  | 
CN(C)C(=N)NC(=N)N [Metformin (hydrochloride)] | inactive: 0 | inactive: 0 | inactive: 0 | inactive: 0 | inactive: 0 | inactive: 0 | inactive: 0 | inactive: 0 | inactive: 0 | inactive: 0 | inactive: 0 | inactive: 0 | inactive: 0 | inactive: 0 | inactive: 0 | inactive: 0 | inactive: 0 | inactive: 0 | 0 | 0 |  |  |  |  |  |  |  |  |  |  |  |  |  |  |  |  |  |  |  | 
O=C(c1nn(-c2ccc(CN3CCOCC3)cc2)c2c1CS(=O)(=O)c1c(F)cccc1-2)N1CCOCC1 | inactive: 0 | inactive: 0 | inactive: 0 | inactive: 0 | inactive: 0 | inactive: 0 | inactive: 0 | inactive: 0 | inactive: 0 | inactive: 0 | inactive: 0 | inactive: 0 | inactive: 0 | inactive: 0 | inactive: 0 | inactive: 0 | inactive: 0 | inactive: 0 | 0 | 0 |  |  |  |  |  |  |  |  |  |  |  |  |  |  |  |  |  |  |  | 
